Measurements reported in PubChem BioAssay AID652272 (Drosophila RNAi Screening Center, 2013)

Assay: 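Finding fly genes that regulate Hedgehog signal transduction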 (primary screen)
System: Drosophila clone 8 (Cl8) cells
Reagents: long dsRNA against Drosophila genes
Read-out: 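Plate reader light from a firefly reporter under a ptc promoter fragment that responds to Hedgehog, with Renilla light as transfection reference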
Scale: firefly Hh reporter signal: higher = more ptc reporter light; Renilla reference signal: higher = more Renilla control light
Call rule: 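Called a hit if the two-replicate mean z-score lies below -2 or above +3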
Calls: active = hit: reporter lowered or raised; inactive = not a hit
The screen tested about 21,000 reagents; this is a random part of those with a known target gene and a result. In the full data, 503 (2.4%) got an active call. 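Raw plate light values, not normalised; calls rest on replicate z-scores that were not deposited; hits include reporter decreases as well as increases.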 Reagents against one gene are numbered here. A plus sign joins genes that one reagent is predicted to hit. No sequences are given here. Not given: the amount of reagent, the time to read-out.

firefly Hh reporter signal, replicate 1 | firefly Hh reporter signal, replicate 2 | firefly Hh reporter signal, replicate 3 | Renilla reference signal, replicate 1 | Renilla reference signal, replicate 2 | activity call | Target gene | reagent no.
94468 | 59202 | – | 2428 | 5379 | inactive | CG15676 (GeneID 37472) | 1
64726 | 2.15e5 | – | 3132 | 8022 | inactive | CG10793 (GeneID 31308) | 1
71301 | 2.14e5 | – | 2395 | 7379 | inactive | dx (GeneID 31589) | 1
60758 | 81450 | – | 2618 | 3282 | inactive | numb (GeneID 34263) | 1
96131 | 1.08e5 | – | 1914 | 3296 | inactive | CG2712 (GeneID 31267) | 1
50608 | 57639 | – | 2667 | 2156 | inactive | pie (GeneID 44315) | 1
33162 | 19957 | – | 1705 | 3121 | active | RpL24 (GeneID 34754) | 1
94162 | 1.89e5 | – | 4266 | 5569 | inactive | Enoph (GeneID 40630) | 1
4.78e5 | 1.45e5 | – | 26868 | 7408 | inactive | CG31957 (GeneID 319046) | 1
73660 | 31763 | – | 3568 | 1577 | inactive | Mgtor (GeneID 36264) | 1
97243 | 45136 | – | 2601 | 3936 | inactive | CG5781 (GeneID 34678) | 1
1.29e5 | 92009 | – | 5136 | 3920 | inactive | CG1136 (GeneID 38479) | 1
1.11e5 | 98023 | – | 2678 | 2530 | inactive | CG10958 (GeneID 31736) | 1
58875 | 22865 | 22237 | 3369 | 1881 | inactive | CG44837 (GeneID 5740513) | 1
45197 | 22668 | 41143 | 2929 | 3003 | inactive | CG44837 (GeneID 5740513) | 2
39072 | 61111 | – | 1896 | 2733 | inactive | px (GeneID 37573) | 1
5.21e5 | 1.20e5 | – | 25896 | 3691 | inactive | Irk1 (GeneID 42742) | 1
4.03e5 | 90772 | – | 19463 | 2448 | inactive | Irk1 (GeneID 42742) | 2
1.87e5 | 1.25e5 | – | 8032 | 4513 | inactive | CG14650 (GeneID 40566) | 1
5.21e5 | 74589 | – | 27728 | 1953 | inactive | cry (GeneID 42305) | 1
1.22e5 | 1.07e5 | – | 3267 | 2582 | inactive | CG18473 (GeneID 41116) | 1
1.00e5 | 64088 | – | 3692 | 2292 | inactive | CG16904 (GeneID 41212) | 1
1.00e5 | 2.97e5 | – | 3732 | 10922 | inactive | Sgs4 (GeneID 31304) | 1
1.16e5 | 80864 | – | 4883 | 3024 | inactive | tra2 (GeneID 36619) | 1
31946 | 30519 | – | 2838 | 2099 | active | Prosalpha5 (GeneID 36951) | 1
1.30e5 | 2.28e5 | – | 3430 | 9378 | inactive | CG30356 (GeneID 246562) | 1
1.11e5 | 59466 | – | 2912 | 4903 | inactive | dany (GeneID 246593) | 1
46154 | 45650 | – | 1436 | 1865 | inactive | CG4849 (GeneID 43358) | 1
1.01e5 | 91476 | – | 4592 | 4133 | inactive | Orct (GeneID 42891) | 1
1.08e5 | 69590 | – | 4748 | 3329 | inactive | CG4291 (GeneID 33264) | 1
1971 | 2.22e5 | – | 375 | 4304 | inactive | CG31517 (GeneID 251711) | 1
1.19e5 | 68841 | – | 2453 | 1040 | inactive | CG10139 (GeneID 36626) | 1
52777 | 1.65e5 | – | 12064 | 3642 | inactive | snRNA:U1:95Cc + CG43285 (retired record) | 1
1.75e5 | – | – | 2629 | 7472 | inactive | Tsp74F (GeneID 39995) | 1
1.39e5 | 71709 | – | 5121 | 2792 | inactive | Rhau (GeneID 35339) | 1
26021 | 28761 | 52420 | 2288 | 3272 | inactive | Est-P (GeneID 39393) | 1
52603 | 44848 | – | 7120 | 3776 | inactive | TrpA1 (GeneID 39015) | 1
83770 | 37636 | – | 2224 | 2988 | inactive | Etf-QO (GeneID 36031) | 1
97488 | 1.29e5 | – | 4229 | 4930 | inactive | CG6432 (GeneID 42901) | 1
1.02e5 | 90119 | – | 4632 | 3773 | inactive | CG10194 (GeneID 35231) | 1
1.20e5 | 77890 | – | 2835 | 2168 | inactive | wry (GeneID 33361) | 1
2.38e5 | 1.50e5 | – | 5380 | 3975 | inactive | wry (GeneID 33361) | 2
1.07e5 | 71218 | – | 4355 | 3123 | inactive | Hsp60B (GeneID 48572) | 1
73984 | 1.67e5 | – | 2675 | 6384 | inactive | CG15890 (GeneID 32401) | 1
84822 | 73164 | – | 2480 | 4845 | inactive | CG11044 (GeneID 37281) | 1
70070 | 1.64e5 | – | 1372 | 7331 | inactive | pcx (GeneID 31204) | 1
97410 | 2.31e5 | – | 2304 | 10979 | inactive | pcx (GeneID 31204) | 2
70265 | 2.60e5 | – | 2672 | 11216 | inactive | pcx (GeneID 31204) | 3
82422 | 1.94e5 | – | 1739 | 8680 | inactive | pcx (GeneID 31204) | 4
1.11e5 | 2.17e5 | – | 2464 | 9708 | inactive | pcx (GeneID 31204) | 5
2.33e5 | 1.35e5 | – | 5204 | 4980 | inactive | pcx (GeneID 31204) | 6
1.01e5 | 1.03e5 | – | 1964 | 2896 | inactive | CG5112 (GeneID 43083) | 1
8.23e5 | 1.21e5 | – | 44489 | 3584 | inactive | Epg5 (GeneID 42256) | 1
90785 | 2.07e5 | – | 2642 | 8752 | inactive | Drsl4 (GeneID 317954) | 1
1.94e5 | 1.28e5 | – | 2861 | 2850 | inactive | CG3857 (GeneID 2768908) | 1
92311 | 1.15e5 | – | 1920 | 3075 | inactive | Task6 (GeneID 41671) | 1
67620 | 74708 | – | 2900 | 2103 | inactive | RacGAP84C (GeneID 117503) | 1

Active calls (from the list above):
firefly Hh reporter signal, replicate 1 | firefly Hh reporter signal, replicate 2 | firefly Hh reporter signal, replicate 3 | Renilla reference signal, replicate 1 | Renilla reference signal, replicate 2 | activity call | Target gene | reagent no.
33162 | 19957 | – | 1705 | 3121 | active | RpL24 (GeneID 34754) | 1
31946 | 30519 | – | 2838 | 2099 | active | Prosalpha5 (GeneID 36951) | 1
